Test results from the supplement of paper PMC8728848.
The list shows a part of the results.

Assays:
Assay in all cases: glycan array binding signal (z-score within array); higher = stronger binding
Settings in all cases: glycan notation: IUPAC condensed, linker removed
[1] = molecular target: Fuc(a1-2)[GalNAc(a1-3)]Gal(b1-4)GlcNAc(b1-3)GalNAc
Outline: (§1)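 From the Consortium for Functional Glycomics database, 3228 arrays were curated, keeping only those whose protein sequence was available. Binding is given as a within-array Z-score averaged across arrays sharing a protein sequence and across linkers. Negative Z-scores can be read as non-binding.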

[2] = molecular target: Fuc(a1-2)[GalNAc(a1-3)]Gal(b1-4)GlcNAc(b1-3)[Fuc(a1-2)[GalNAc(a1-3)]Gal(b1-4)GlcNAc(b1-6)]GalNAc
Outline: as §1

[3] = molecular target: Fuc(a1-2)[GalNAc(a1-3)]Gal(b1-4)GlcNAc(b1-6)GalNAc
Outline: as §1

[4] = molecular target: Fuc(a1-2)[GalNAc(a1-3)]Gal(b1-4)[Fuc(a1-3)]GlcNAc
Outline: as §1

[5] = molecular target: Fuc(a1-2)[GalNAc(a1-3)]Gal(b1-4)[Fuc(a1-3)]GlcNAc(b1-3)GalNAc
Outline: as §1

[6] = molecular target: Fuc(a1-2)[GalNAc(a1-4)]Gal(b1-4)GlcNAc
Outline: as §1

[7] = molecular target: Fuc(a1-2)[GalNAc(b1-3)]Gal
Outline: as §1

Fuc(a1-3)GlcNAc = molecular target: Fuc(a1-3)GlcNAc
Outline: as §1

[8] = molecular target: Fuc(a1-3)[Gal(b1-4)]Glc6S
Outline: as §1

[9] = molecular target: Fuc(a1-3)[Gal(b1-4)]GlcNAc
Outline: as §1

[10] = molecular target: Fuc(a1-3)[Gal(b1-4)]GlcNAc(b1-2)Man
Outline: as §1

[11] = molecular target: Fuc(a1-3)[Gal(b1-4)]GlcNAc(b1-2)Man(a1-3)[Fuc(a1-3)[Gal(b1-4)]GlcNAc(b1-2)Man(a1-6)]Man(b1-4)GlcNAc(b1-4)GlcNAc
Outline: as §1

[12] = molecular target: Fuc(a1-3)[Gal(b1-4)]GlcNAc(b1-2)Man(a1-3)[Fuc(a1-3)[Gal(b1-4)]GlcNAc(b1-2)Man(a1-6)]Man(b1-4)GlcNAc(b1-4)[Fuc(a1-6)]GlcNAc
Outline: as §1

[13] = molecular target: Fuc(a1-3)[Gal(b1-4)]GlcNAc(b1-3)Gal(b1-3)[Fuc(a1-4)]GlcNAc
Outline: as §1

[14] = molecular target: Fuc(a1-3)[Gal(b1-4)]GlcNAc(b1-3)Gal(b1-4)[Fuc(a1-3)]GlcNAc
Outline: as §1

[15] = molecular target: Fuc(a1-3)[Gal(b1-4)]GlcNAc(b1-3)Gal(b1-4)[Fuc(a1-3)]GlcNAc(b1-3)Gal(b1-4)[Fuc(a1-3)]GlcNAc
Outline: as §1

[16] = molecular target: Fuc(a1-3)[Gal(b1-4)]GlcNAc(b1-3)GalNAc
Outline: as §1

[17] = molecular target: Fuc(a1-3)[Gal(b1-4)]GlcNAc(b1-4)Gal(b1-4)[Fuc(a1-3)]GlcNAc
Outline: as §1

[18] = molecular target: Fuc(a1-3)[Gal(b1-4)]GlcNAc(b1-4)Gal(b1-4)[Fuc(a1-3)]GlcNAc(b1-4)Gal(b1-4)[Fuc(a1-3)]GlcNAc
Outline: as §1

[19] = molecular target: Fuc(a1-3)[Gal(b1-4)]GlcNAc(b1-6)GalNAc
Outline: as §1

[20] = molecular target: Fuc(a1-3)[Gal(b1-4)]GlcNAc(b1-6)[Gal(b1-3)GlcNAc(b1-3)]Gal(b1-4)Glc
Outline: as §1

[21] = molecular target: Fuc(a1-3)[Gal(b1-4)]GlcNAc(b1-6)[Neu5Ac(a2-3)Gal(b1-3)]GalNAc
Outline: as §1

[22] = molecular target: Fuc(a1-3)[Gal(b1-4)]GlcNAc6S
Outline: as §1

[23] = molecular target: Fuc(a1-3)[Gal3S(b1-4)]Glc
Outline: as §1

[24] = molecular target: Fuc(a1-3)[Gal3S(b1-4)]GlcNAc
Outline: as §1

[25] = molecular target: Fuc(a1-3)[Gal3S(b1-4)]GlcNAc6S
Outline: as §1

[26] = molecular target: Fuc(a1-3)[GalNAc(b1-4)]GlcNAc
Outline: as §1

[27] = molecular target: Fuc(a1-3)[GalNAc(b1-4)]GlcNAc6S
Outline: as §1

[28] = molecular target: Fuc(a1-3)[GalNAc3S(b1-4)]GlcNAc
Outline: as §1

Fuc(a1-4)GlcNAc = molecular target: Fuc(a1-4)GlcNAc
Outline: as §1

B1: LlpA1 (Pseudomonas fluorescens), Q4KHC3 (protein)
chain: MGSSHHHHHHSSGLVPRGSHMAWIRYDFTDNGSSVLPARYYMAPNQYLQSPNKRFKLLFQADGNLALYDGAQLAWVADQNTPFTNVSKGNKKDPMMVFMNYGFVLDDPLRGRIWSTTPSDPTMGSREDASLRAFTQVQDDGNIVTVDTIPHWYAPNGRVFTPAVGAAMIIGGTTELVPGQFYSAGEHSLVFQGDGNLVVYGPNSSVIWATYTQNKGGVRCVMQEDGNLVIYAANNGVVWQSGTGGHPGATIRLQANGSFTIVTERPVWARFGYTPTIKPPRVFYPDHKWKTGSYTWNNVF
- glycan array binding signal (z-score) [1]: -0.468
- glycan array binding signal (z-score) [2]: 0.203
- glycan array binding signal (z-score) [3]: -0.019
- glycan array binding signal (z-score) [4]: 0.114
- glycan array binding signal (z-score) [5]: 1.55
- glycan array binding signal (z-score) [6]: 0.06
- glycan array binding signal (z-score) [7]: 0.713
- glycan array binding signal (z-score) (Fuc(a1-3)GlcNAc): -0.343
- glycan array binding signal (z-score) [8]: 0.378
- glycan array binding signal (z-score) [9]: -0.246
- glycan array binding signal (z-score) [10]: 1.03
- glycan array binding signal (z-score) [11]: -0.031
- glycan array binding signal (z-score) [12]: 0.476
- glycan array binding signal (z-score) [13]: -0.38
- glycan array binding signal (z-score) [14]: 0.074
- glycan array binding signal (z-score) [15]: -0.199
- glycan array binding signal (z-score) [16]: 0.327
- glycan array binding signal (z-score) [17]: -1.15
- glycan array binding signal (z-score) [18]: -1.29
- glycan array binding signal (z-score) [19]: -0.157
- glycan array binding signal (z-score) [20]: -0.172
- glycan array binding signal (z-score) [21]: 0.209
- glycan array binding signal (z-score) [22]: -0.182
- glycan array binding signal (z-score) [23]: -0.092
- glycan array binding signal (z-score) [24]: 0.096
- glycan array binding signal (z-score) [25]: -0.653
- glycan array binding signal (z-score) [26]: -0.611
- glycan array binding signal (z-score) [27]: 0.668
- glycan array binding signal (z-score) [28]: -0.644
- glycan array binding signal (z-score) (Fuc(a1-4)GlcNAc): -0.225
